Laboratory results as given in publication PMC4451422, “Catch me if you can: a biotinylated proteoliposome affinity assay for the investigation of assembly of the MexA-MexB-OprM efflux pump from Pseudomonas aeruginosa” (Frontiers in Microbiology, 2015).
These are yes or no findings as the source states them, for the method shown.

How the values were obtained:
[1] = target: T1, MexAB: MexA (palmitoylated) and MexB reconstituted together in biotinylated proteoliposomes (Pseudomonas aeruginosa) (UniProt P52477); assay: condition: only 5 min after generation of the pH gradient (transport at steady state); pull-down; as a1 but diluted with 20 mM Mes Tris pH6, 100 mM K2SO4, 2 mM MgSO4 to generate a pH gradient; beads added after a 5-min incubation (t = 5 min, transport at steady state); both purified
T1 sequence (chain, palmitoylated (lipid anchor); residue not stated) 1: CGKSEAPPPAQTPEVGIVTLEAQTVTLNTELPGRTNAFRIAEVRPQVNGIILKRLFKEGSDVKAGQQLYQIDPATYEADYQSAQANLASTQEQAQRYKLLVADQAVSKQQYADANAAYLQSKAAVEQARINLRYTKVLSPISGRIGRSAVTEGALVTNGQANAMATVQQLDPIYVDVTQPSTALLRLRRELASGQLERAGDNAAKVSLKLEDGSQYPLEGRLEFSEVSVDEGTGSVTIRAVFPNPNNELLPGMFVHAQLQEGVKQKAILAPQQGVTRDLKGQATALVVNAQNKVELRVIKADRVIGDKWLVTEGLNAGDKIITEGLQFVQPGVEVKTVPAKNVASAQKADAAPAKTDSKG
T1 sequence (chain, palmitoylated (lipid anchor); residue not stated) 2: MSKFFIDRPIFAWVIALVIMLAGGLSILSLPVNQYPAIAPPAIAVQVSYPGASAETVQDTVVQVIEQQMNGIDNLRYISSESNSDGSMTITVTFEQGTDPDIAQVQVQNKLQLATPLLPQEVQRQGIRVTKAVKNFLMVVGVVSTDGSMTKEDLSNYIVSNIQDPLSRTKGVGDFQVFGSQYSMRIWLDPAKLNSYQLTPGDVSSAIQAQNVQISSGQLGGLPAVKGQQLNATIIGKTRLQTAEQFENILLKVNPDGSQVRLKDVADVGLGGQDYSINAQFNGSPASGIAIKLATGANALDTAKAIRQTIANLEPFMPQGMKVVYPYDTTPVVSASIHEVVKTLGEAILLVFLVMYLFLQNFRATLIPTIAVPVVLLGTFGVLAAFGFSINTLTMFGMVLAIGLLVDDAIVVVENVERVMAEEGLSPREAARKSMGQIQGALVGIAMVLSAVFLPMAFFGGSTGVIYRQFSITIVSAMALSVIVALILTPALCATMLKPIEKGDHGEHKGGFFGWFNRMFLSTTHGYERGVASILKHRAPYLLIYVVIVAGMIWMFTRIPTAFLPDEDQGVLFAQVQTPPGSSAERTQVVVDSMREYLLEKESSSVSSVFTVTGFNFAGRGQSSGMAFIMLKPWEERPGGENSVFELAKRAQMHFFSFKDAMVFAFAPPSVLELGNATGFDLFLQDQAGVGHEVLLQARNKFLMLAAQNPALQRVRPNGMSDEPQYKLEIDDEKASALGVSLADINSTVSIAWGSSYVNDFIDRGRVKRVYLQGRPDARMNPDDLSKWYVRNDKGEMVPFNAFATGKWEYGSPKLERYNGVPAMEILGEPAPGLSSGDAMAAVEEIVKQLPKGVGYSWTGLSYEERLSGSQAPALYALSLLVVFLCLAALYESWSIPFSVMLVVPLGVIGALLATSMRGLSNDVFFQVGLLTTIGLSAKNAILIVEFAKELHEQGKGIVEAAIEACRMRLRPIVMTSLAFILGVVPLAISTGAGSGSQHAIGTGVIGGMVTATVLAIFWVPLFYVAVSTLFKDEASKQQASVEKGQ

[2] = target: T2, MexB (Pseudomonas aeruginosa) (UniProt P52002); assay: pull-down; MagStrep (streptavidin) magnetic beads sediment biotin-lipid proteoliposomes with MexB or MexAB; OprM in separate proteoliposomes; non-energized: 25 mM Hepes pH7, 100 mM K2SO4, 2 mM MgSO4; 20 min at room temperature; pellets on SDS-PAGE, Coomassie; both purified
T2 sequence: T1 sequence (chain, palmitoylated (lipid anchor); residue not stated) 2

[3] = target: T3, MexB proteoliposomes in the presence of a soluble version of MexA (MexAnp) (Pseudomonas aeruginosa) (UniProt P52477); assay: as above
T3 sequence 1: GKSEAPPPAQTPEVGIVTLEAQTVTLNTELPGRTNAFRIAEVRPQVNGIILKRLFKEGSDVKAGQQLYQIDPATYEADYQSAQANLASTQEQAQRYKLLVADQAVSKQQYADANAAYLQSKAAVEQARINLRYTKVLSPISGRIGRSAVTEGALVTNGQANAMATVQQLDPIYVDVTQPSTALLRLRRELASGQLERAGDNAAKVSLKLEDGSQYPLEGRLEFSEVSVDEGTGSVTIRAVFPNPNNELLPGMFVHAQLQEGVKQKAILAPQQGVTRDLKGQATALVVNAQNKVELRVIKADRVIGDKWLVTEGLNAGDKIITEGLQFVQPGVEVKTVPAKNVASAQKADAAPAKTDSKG
T3 sequence 2: T1 sequence (chain, palmitoylated (lipid anchor); residue not stated) 2

Measured: binding

B1: OprM (natural protein)
chain: CSLIPDYQRPEAPVAAAYPQGQAYGQNTGAAAVPAADIGWREFFRDPQLQQLIGVALENNRDLRVAALNVEAFRAQYRIQRADLFPRIGVDGSGTRQRLPGDLSTTGSPAISSQYGVTLGTTAWELDLFGRLRSLRDQALEQYLATEQAQRSAQTTLVASVATAYLTLKADQAQLQLTKDTLGTYQKSFDLTQRSYDVGVASALDLRQAQTAVEGARATLAQYTRLVAQDQNALVLLLGSGIPANLPQGLGLDQTLLTEVPAGLPSDLLQRRPDILEAEHQLMAANASIGAARAAFFPSISLTANAGTMSRQLSGLFDAGSGSWLFQPSINLPIFTAGSLRASLDYAKIQKDINVAQYEKAIQTAFQEVADGLAARGTFTEQLQAQRDLVKASDEYYQLADKRYRTGVDNYLTLLDAQRSLFTAQQQLITDRLNQLTSEVNLYKALGGGWNQQTVTQQQTAKKEDPQA
notes: OprM, outer membrane channel of the MexA-MexB-OprM efflux pump, Pseudomonas aeruginosa; Purified by the protocol of Phan et al., 2010 with minor modifications; also called OMF; OprM proteoliposomes
no binding: all assays above
